Test [1] addresses T1, cynomolgus CD200RLa (form in the assay not stated) (cynomolgus monkey).
T1 sequence: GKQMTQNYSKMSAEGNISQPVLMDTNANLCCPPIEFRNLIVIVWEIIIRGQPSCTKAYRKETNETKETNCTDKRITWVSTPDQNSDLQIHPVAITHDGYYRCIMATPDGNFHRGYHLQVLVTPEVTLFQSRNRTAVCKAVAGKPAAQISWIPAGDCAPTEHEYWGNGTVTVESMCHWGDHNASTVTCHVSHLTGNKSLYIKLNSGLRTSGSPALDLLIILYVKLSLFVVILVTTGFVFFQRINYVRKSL
As to the kind of experiment: ELISA or flow cytometry (not told which). (In general: In an ELISA, binding on a coated surface is turned into a signal by an enzyme label.)

By UniProt entry, the sequences of proteins in these tests, tags left out. Residues count along the entry.
UniProt O54885, residues 22-114: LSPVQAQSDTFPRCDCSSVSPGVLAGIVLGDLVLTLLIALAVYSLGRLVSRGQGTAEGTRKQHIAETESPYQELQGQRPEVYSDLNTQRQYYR

In test [2] the target is mouse DAP12, endogenous in mouse mast cells (mouse) (UniProt O54885). As to the kind of experiment: co-immunoprecipitation with DX182, Western blot for DAP12. (In western blotting, separated proteins are transferred to a membrane and probed.)
Test [3] has the same target. As to the kind of experiment: co-immunoprecipitation with DX182, Western blot with rabbit anti-mouse DAP12.
For test [4], the target named is T2, cynomolgus CD200RLa expressed on mouse mast cells or on Ba/F3 cells with human DAP12 (cynomolgus monkey).
T2 sequence: T1 sequence
As to the kind of experiment: immunoprecipitation from lysate of surface-biotinylated mouse mast cells expressing cynomolgus CD200RLa, blot with streptavidin-HRP.

Test [5] has the same target. As to the kind of experiment: flow cytometry on mouse mast cell and Ba/F3-DAP12 transfectants. On the technique in general: In flow cytometry, cells or beads pass a laser one at a time.
The target is the same in test [6]. As to the kind of experiment: immunoprecipitation from surface-biotinylated mouse mast cell transfectants.
For test [7] the target is unchanged. As to the kind of experiment: flow cytometry on Ba/F3 cells with human DAP12 transfected with cynomolgus CD200RLa.
For test [8] the target is unchanged. As to the kind of experiment: flow cytometry on mouse mast cells transfected with cynomolgus CD200RLa.

Results are given in words; binding and its absence hold for the method and conditions named. For some of these results: Binding seen in cells or lysates may run through a third protein. Some entries that bind do so weakly or less than the wild type.

B1: DX184, rat anti-human inhibitory CD200R monoclonal antibody (antibody, V domains shown)
VL: DIVMTQSPTFMSISVGDRVTMSCKASQNVGSNVDWYQQKTGQSPKLLIYKASNRYTGVPDRFTGSGSGTGFTFTITNLQAEDLAVYYCMQSLSFPYTSGAGT
VH: QVQLKESGPGLVQPSQTLSLTCTVSGFSLTNNGVSWVRQPPGKGLEWIAAISSGGGTFYNSALKSRLSISRDTSKSQVFLKMNSLQTEDTAIYFCARDGDWDWYFDFWGPGTMVTVSS
In the case of B1, the binding entry in test [1] was “binds”.

B2: cynomolgus CD200RLa expressed on mouse mast cells or on Ba/F3 cells with human DAP12 (receptor)
chain: T1 sequence
Consider B2, for which the binding result in test [2] and in test [3] was “binds” in each case.

B3: DX185, rat anti-human inhibitory CD200R monoclonal antibody (antibody, V domains shown)
VH: EIQLQESGPGLVKPSQSFSLTCSVTGYTITSGYDWSWIRKFPGNRMEWMGYINYSGSTVYNPSLRSRFSITRDTSKNQFFLQLNSVASEDTATYYCAKFEASNTYLYDWYFDFWGPGTMVTVSS
VL: DVQMTQSPSYLAASPGESVSISCKAGKNINTNLAWYQAKPGKTNKVLIHSGSTLQSGTPSRFSGSGFGTDFTLTIRSLEPEDFAVYYCQQHNEFPLTFGSGTKLEIKR
As to B3, the binding result in test [1] is reported as “binds”.

B4: DX182, rat anti-human inhibitory CD200R monoclonal antibody (antibody, V domains shown)
VL: EVQMTQSPSTLTASPGESVSINCKASKNIRSYLAWYQQKPGKPNKLLIYSGSTLHSGTPSRFSGSGFGTDFTLTIRNLEPEDFGLYYCQQHHEYPLTFGSGTKLEIKR
VH: EIQLQESGPGLVKPSQSLSLTCSVTGYTITSGYDWSWIRKFPGNKMEWMGYINYGGSTNYKPSLGSRISITRDTSKNQFFLQLNSVSPEDTATYYCAKYNEYKSYIYDWYFDFWGPGTMVTVSS
For the molecule B4, the binding entry in test [1], in test [4], in test [5], in test [6], in test [7] and in test [8] was “binds” throughout.
